Laboratory results as given in US5164321A, “Process for the removal of non-specific turbidities” (priority 1987, dated 1992).
Where “and” joins values, the source holds several entries; their conditions need not be identical. Equal entries are not always repeated.

Columns and labels:
[1] = Non-specific agglutination in latex immunoassay for AFP determination (turbidity at 623 nm, Example 1); set-up: species or system human; conditions: 120 mmole/l in the test
[2] = Non-specific agglutination in latex immunoassay for TSH determination (Example 2); set-up: species or system human; conditions: for non-specific agglutination, boron compound alone: 120 mmole/l in the test

Molecule | non-specific agglutination, boron compound alone [1] | non-specific agglutination, boron compound alone [2] | non-specific agglutination, buffer ([2]; buffer alone, 70 mmole/l in the test, pH 7.0)
sodium perborate | 92 ME/5 min. |  | 
OB(O)O [boric acid] | 253 ME/5 min. | 230 mE/5 min. | 
O=B[O-].[Na+] [metaborate, sodium metaborate] | 106 ME/5 min. | 106 mE/5 min. | 
[Na+].[Na+].[O-]B1OB2OB([O-])OB(O1)O2 [tetraborate, sodium tetraborate] | 0 ME/5 min. |  | 
NC(CO)(CO)CO [TRIS] |  |  | 120 mE/5 min. and 142 mE/5 min.
